No constants are given. Whether binding was seen depends on the method and setting. Binding calls can cover weak binding; strength is not graded here.
Biological target: monomeric carbohydrate-recognition domain (CRD) from DC-SIGN (UniProt Q9NNX6)
Experiment: radioligand binding; competition: CRD of DC-SIGN immobilised on polystyrene wells, 125I-labeled mannose-BSA as reporter ligand, competing ligand titrated; KI = concentration for 50% inhibition; both purified

Amino acid sequences for entries named in this document (tags omitted). A change or cut given only in a name is not applied to a line headed by its entry. Residues count along the entry.
UniProt Q9NNX6: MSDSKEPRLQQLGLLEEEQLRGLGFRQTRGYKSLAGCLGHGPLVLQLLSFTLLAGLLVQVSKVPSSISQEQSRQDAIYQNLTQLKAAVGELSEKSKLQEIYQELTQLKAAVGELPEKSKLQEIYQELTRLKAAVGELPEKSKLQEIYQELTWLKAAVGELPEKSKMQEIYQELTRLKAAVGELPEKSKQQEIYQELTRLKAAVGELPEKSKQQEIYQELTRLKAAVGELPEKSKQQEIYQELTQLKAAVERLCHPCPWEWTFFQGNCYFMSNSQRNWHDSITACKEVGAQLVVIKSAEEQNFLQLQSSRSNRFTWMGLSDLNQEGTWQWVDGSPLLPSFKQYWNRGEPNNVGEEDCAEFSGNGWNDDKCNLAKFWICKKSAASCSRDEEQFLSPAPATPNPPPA
UniProt P02769, residues 25-607: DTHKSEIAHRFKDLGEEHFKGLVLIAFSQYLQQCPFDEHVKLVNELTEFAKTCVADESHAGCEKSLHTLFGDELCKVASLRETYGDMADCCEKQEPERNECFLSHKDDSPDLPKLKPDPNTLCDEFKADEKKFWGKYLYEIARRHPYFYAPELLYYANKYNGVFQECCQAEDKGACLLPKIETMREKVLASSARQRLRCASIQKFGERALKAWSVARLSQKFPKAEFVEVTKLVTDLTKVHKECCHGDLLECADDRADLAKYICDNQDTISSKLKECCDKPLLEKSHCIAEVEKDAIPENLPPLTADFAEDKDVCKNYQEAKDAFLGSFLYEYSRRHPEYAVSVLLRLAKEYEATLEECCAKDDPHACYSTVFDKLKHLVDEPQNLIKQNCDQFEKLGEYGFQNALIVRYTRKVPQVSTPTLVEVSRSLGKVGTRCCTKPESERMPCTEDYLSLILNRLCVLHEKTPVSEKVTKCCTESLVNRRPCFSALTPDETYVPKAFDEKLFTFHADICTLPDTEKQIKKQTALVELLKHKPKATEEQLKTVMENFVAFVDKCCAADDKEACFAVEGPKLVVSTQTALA

- binding: binds
Substance: 125I-labeled mannose-BSA (from UniProt P02769 25-607)

Source: publication PMC2824085
